Binding data for 13 molecules are collected here from article PMC4199759.

Sequences of proteins named here, by UniProt entry; tags and fusion partners are left off. Residues count along the entry.
UniProt P15187, residues 1-296: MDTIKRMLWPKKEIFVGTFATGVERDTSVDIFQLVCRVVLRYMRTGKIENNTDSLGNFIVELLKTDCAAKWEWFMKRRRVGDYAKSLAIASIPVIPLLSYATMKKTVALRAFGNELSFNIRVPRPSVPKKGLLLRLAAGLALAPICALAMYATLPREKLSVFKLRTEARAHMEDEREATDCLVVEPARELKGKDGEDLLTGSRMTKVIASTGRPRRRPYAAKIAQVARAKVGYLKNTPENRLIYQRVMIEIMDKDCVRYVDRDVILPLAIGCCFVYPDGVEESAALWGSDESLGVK
UniProt Q9SR33: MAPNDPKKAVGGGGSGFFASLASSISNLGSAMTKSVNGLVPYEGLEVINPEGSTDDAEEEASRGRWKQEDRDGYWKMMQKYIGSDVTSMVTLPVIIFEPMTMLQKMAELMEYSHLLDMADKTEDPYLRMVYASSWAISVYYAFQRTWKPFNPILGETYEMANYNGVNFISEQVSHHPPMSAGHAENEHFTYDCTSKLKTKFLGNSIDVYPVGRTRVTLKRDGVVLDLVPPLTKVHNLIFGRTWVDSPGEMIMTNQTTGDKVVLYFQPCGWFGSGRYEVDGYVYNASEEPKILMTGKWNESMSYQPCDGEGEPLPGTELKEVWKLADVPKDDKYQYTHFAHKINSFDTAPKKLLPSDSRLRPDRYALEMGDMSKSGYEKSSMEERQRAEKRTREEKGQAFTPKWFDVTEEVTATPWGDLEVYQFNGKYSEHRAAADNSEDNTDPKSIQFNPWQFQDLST
UniProt Q9SW00: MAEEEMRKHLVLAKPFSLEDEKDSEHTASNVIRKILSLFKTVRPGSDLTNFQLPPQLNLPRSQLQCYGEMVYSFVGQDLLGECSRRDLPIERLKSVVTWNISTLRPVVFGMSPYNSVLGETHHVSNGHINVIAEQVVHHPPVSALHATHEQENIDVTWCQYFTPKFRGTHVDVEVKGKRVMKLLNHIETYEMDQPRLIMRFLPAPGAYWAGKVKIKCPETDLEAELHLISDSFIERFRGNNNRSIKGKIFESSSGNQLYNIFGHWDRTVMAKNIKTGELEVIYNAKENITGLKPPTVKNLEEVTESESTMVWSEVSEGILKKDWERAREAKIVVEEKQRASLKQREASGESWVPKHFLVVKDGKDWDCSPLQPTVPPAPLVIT
UniProt Q9SVZ9: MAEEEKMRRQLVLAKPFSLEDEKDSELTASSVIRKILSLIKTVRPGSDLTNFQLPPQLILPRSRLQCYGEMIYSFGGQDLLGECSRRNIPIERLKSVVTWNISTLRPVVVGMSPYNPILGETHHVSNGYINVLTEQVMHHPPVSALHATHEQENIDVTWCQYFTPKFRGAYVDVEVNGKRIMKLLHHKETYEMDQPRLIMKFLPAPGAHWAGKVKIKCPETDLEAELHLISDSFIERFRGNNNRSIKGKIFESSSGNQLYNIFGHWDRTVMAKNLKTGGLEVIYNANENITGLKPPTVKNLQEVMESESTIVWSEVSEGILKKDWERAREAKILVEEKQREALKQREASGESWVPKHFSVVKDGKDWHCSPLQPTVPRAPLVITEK
UniProt P35843: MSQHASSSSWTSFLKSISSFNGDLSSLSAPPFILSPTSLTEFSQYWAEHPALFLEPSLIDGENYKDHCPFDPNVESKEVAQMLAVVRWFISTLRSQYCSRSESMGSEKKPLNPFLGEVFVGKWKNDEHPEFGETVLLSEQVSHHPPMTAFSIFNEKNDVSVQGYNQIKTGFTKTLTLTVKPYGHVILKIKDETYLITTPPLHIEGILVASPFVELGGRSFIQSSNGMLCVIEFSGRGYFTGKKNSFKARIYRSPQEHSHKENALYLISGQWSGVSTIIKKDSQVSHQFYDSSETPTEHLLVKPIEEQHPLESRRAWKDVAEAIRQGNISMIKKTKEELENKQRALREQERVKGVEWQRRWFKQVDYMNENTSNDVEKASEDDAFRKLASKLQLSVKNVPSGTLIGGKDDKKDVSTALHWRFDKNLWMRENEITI

Where two headings read alike, the source gives them in different places. Results are given in words; binding and its absence hold for the method and conditions named. In cells and extracts the contact can be indirect. Some results given as binding are weak or reduced against the parent protein; the word gives no strength. For some of these results: Where a sequence is shown, tags or fusion partners need not be part of it.

Test [1] deals with FLAG-tagged CNV p33 replication protein (plasmid pESC/DI72/Flag33) (Cucumber necrosis virus (CNV)) (UniProt P15187). The test is described as follows: co-IP.
Test [2] concerns the target FLAG-tagged tombusvirus p33 replication protein (plasmid pGBK-Flag33-CUP1/DI72-GAL1) (not stated (tombusvirus)) (UniProt P15187). Put plainly: co-IP.
Test [3] deals with FLAG-tagged CNV p33 replication protein (plasmid pESC/DI72/Flag33) (Cucumber necrosis virus (CNV)) (UniProt P15187). Put plainly: co-IP. The source holds these as a separate data set.
Test [4] addresses T1, nYFP-AtPVA12 VAP protein (Arabidopsis thaliana) (UniProt Q9SHC8).
T1 sequence: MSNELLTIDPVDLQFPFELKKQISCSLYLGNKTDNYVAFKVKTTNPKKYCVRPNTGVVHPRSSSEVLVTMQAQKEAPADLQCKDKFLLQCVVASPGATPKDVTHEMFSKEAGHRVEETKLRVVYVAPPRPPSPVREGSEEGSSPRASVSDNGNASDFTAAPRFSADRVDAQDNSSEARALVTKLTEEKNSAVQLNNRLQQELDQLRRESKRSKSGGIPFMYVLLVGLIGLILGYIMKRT
The test is described as follows: split reporter; BiFC in N. benthamiana leaves, nYFP and cYFP fusions from the 35S promoter, 48 h after agro-infiltration; confocal laser imaging.

For “His6-tagged Arabidopsis ORP3B expressed in yeast (from UniProt Q9SR33 1-458)”, the binding entry in test [1] is on record as “binds”.
Still for that read-out and setting: the same measure for “His6-tagged Arabidopsis ORP4B expressed in yeast (from UniProt Q9SW00 1-383)”: “binds”; for “His6-tagged Arabidopsis ORP4A expressed in yeast (from UniProt Q9SVZ9 1-386)”: “binds”.
Same read-out and setting: the same measure for “His6-tagged Osh5p expressed in yeast (from UniProt P35843 1-434)”: “binds”.

B1: Osh7p, chromosomally expressed, 6xHA-tagged (protein, UniProt P38755 1-437)
chain: MALNKLKNIPSLTNSSHSSINGIASNAANSKPSGADTDDIDENDESGQSILLNIISQLKPGCDLSRITLPTFILEKKSMLERITNQLQFPDVLLEAHSNKDGLQRFVKVVAWYLAGWHIGPRAVKKPLNPILGEHFTAYWDLPNKQQAFYIAEQTSHHPPESAYFYMIPESNIRVDGVVVPKSKFLGNSSAAMMEGLTVLQFLDIKDANGKPEKYTLSQPNVYARGILFGKMRIELGDHMVIMGPKYQVDIEFKTKGFISGTYDAIEGTIKDYDGKEYYQISGKWNDIMYIKDLREKSSKKTVLFDTHQHFPLAPKVRPLEEQGEYESRRLWKKVTDALAVRDHEVATEEKFQIENRQRELAKKRAEDGVEFHSKLFRRAEPGEDLDYYIYKHIPEGTDKHEEQIRSILETAPILPGQTFTEKFSIPAYKKHGIQKN
For the molecule B1, in test [2], the binding result is on record as “binds”.

B2: Osh6p, chromosomally expressed, 6xHA-tagged (protein, UniProt Q02201 1-448)
chain: MGSKKLTVGSDSHRLSKSSFSSNKSSHSATKDQPIDTDDIDEDDESGHNIILNIISQLRPGCDLTRITLPTFILEKKSMLERVTNQLQFPEFLLQAHSEKDPLKRFLYVMKWYLAGWHIAPKAVKKPLNPVLGEYFTAYWDLPNKQQAYYISEQTSHHPPECAYFYMIPESSIRVDGVVIPKSRFLGNSSAAMMDGSTVLQFLDIKDGNGKPEKYVLTQPNVYVRGILFGKMRIELGDHMIIKSPNFQADIEFKTKGYVFGTYDAIEGTVKDYDGNAYYEISGKWNDVMYLKDLKQPRSSPKVFLDTHKESPLRPKVRPLSEQGEYESRKLWKKVTDALAVRNHPVATEEKFQIEDHQRQLAKKRIEDGVEFHPKLFRRSKPGEDLDYCIYKNIPVDEDPEKQIRSILQIAPILPGQQFTDKFFIPAFEKIKSQKKMIENEKQNPAKQ
Consider B2, for which the binding entry in test [2] is “binds”.

B3: His6-tagged Osh6p expressed in yeast (protein, UniProt Q02201 1-448)
chain: MGSKKLTVGSDSHRLSKSSFSSNKSSHSATKDQPIDTDDIDEDDESGHNIILNIISQLRPGCDLTRITLPTFILEKKSMLERVTNQLQFPEFLLQAHSEKDPLKRFLYVMKWYLAGWHIAPKAVKKPLNPVLGEYFTAYWDLPNKQQAYYISEQTSHHPPECAYFYMIPESSIRVDGVVIPKSRFLGNSSAAMMDGSTVLQFLDIKDGNGKPEKYVLTQPNVYVRGILFGKMRIELGDHMIIKSPNFQADIEFKTKGYVFGTYDAIEGTVKDYDGNAYYEISGKWNDVMYLKDLKQPRSSPKVFLDTHKESPLRPKVRPLSEQGEYESRKLWKKVTDALAVRNHPVATEEKFQIEDHQRQLAKKRIEDGVEFHPKLFRRSKPGEDLDYCIYKNIPVDEDPEKQIRSILQIAPILPGQQFTDKFFIPAFEKIKSQKKMIENEKQNPAKQ
Consider B3, for which the binding result in test [3] is recorded as “binds”.

B4: His6-tagged Arabidopsis ORP3A expressed in yeast (protein, UniProt Q9LZM1 1-453)
chain: MASNDPKNGGGFFASLASSITNFGSAMSKSVNGLMGYEGLEVINPEGSTDDAEEEAGRGRWKQEERDGYWKMMQKYIGSDVTSMVTLPVIIFEPMTMLQKMAELMEYSYLLDMADKTEDPYMRMVYASSWAISVYYAYQRTWKPFNPILGETYEMTNHNGINFIAEQVCHHPPMSAGHAENEHFAYDCTSKLKTKFLGNSIDVYPVGRTRVTLKRDGVVLDLVPPLTKVHNLIFGRTWVDSPGEMVMTNLTTGDKVVLYFQPCGWFGSGRYEVDGYVYNSAEEPKMLMTGKWNESLSYQPCDAEGEPLPGTELKEVWKVAEAPKNDKYQYTHFAHKINSFDTAPKKLLSSDSRLRPDRYALEMGDMSKSGFEKSSLEDRQRAEKKSREEKGQKFAPKWFDETEEVTPTPWGDLEVYQFNGKYSVHRATAENSEDTTDVKLTQFNPWQFQDLSA
Turning to B4, the binding result in test [3] is “binds”.

B5: AtOrp3A-cYFP protein (protein, UniProt Q9LZM1 1-453)
chain: MASNDPKNGGGFFASLASSITNFGSAMSKSVNGLMGYEGLEVINPEGSTDDAEEEAGRGRWKQEERDGYWKMMQKYIGSDVTSMVTLPVIIFEPMTMLQKMAELMEYSYLLDMADKTEDPYMRMVYASSWAISVYYAYQRTWKPFNPILGETYEMTNHNGINFIAEQVCHHPPMSAGHAENEHFAYDCTSKLKTKFLGNSIDVYPVGRTRVTLKRDGVVLDLVPPLTKVHNLIFGRTWVDSPGEMVMTNLTTGDKVVLYFQPCGWFGSGRYEVDGYVYNSAEEPKMLMTGKWNESLSYQPCDAEGEPLPGTELKEVWKVAEAPKNDKYQYTHFAHKINSFDTAPKKLLSSDSRLRPDRYALEMGDMSKSGFEKSSLEDRQRAEKKSREEKGQKFAPKWFDETEEVTPTPWGDLEVYQFNGKYSVHRATAENSEDTTDVKLTQFNPWQFQDLSA
With B5, the binding result in test [4] was “binds”.

B6: His6-tagged Arabidopsis ORP3C expressed in yeast (protein, UniProt Q93Y40 1-457)
chain: MGSPKKNENKGFFAAMTSGFSMFGTAVSRSVNGVQGNEGVEVINPEGGKEDAEEEAQKGRWKDEERDSYWKMMQKYIGSDITSMVTLPVVIFEPMTMLQKMAEIMEYSHLLDQADECEDPYLRLVYASSWAISVYYAFQRTWKPFNPILGETYEMVNHGGISFISEQVSHHPPMSAGHAENEHFIYDITSKLKTKLLGNSVDVYPVGRTRVTLKKDGVVLDLVPPLTKIHNLIFGRTWVDSPGEMVMTNLTTGDKVVLYFQPCGWFGSGRYEVDGYVYSAAEEPKIMMTGKWNEKMSYQPCDAEGEPLPGTELKEVWHLADVPKNDNFQYTHFAHKINSFDTAPAKLLASDSRIRPDRYSLEQGDLSKAGSEKHSLEERQRAEKRTRETKGQKFTPRWFDLTDEITPTPWGDIEVYQYNGKYNEHRDTAESSSSASNETDLKSIEFNPWQYGNISTE
For the molecule B6, the binding result in test [3] is reported as “binds”.

B7: Scs2p VAP protein, chromosomally expressed, 6xHA-tagged (protein, UniProt P40075 1-244)
chain: MSAVEISPDVLVYKSPLTEQSTEYASISNNSDQTIAFKVKTTAPKFYCVRPNAAVVAPGETIQVQVIFLGLTEEPAADFKCRDKFLVITLPSPYDLNGKAVADVWSDLEAEFKQQAISKKIKVKYLISPDVHPAQNQNIQENKETVEPVVQDSEPKEVPAVVNEKEVPAEPETQPPVQVKKEEVPPVVQKTVPHENEKQTSNSTPAPQNQIKEAATVPAENESSSMGIFILVALLILVLGWFYR
Take B7: in test [2], the binding entry is “binds”.

B8: His6-tagged Arabidopsis ORP4C expressed in yeast (protein, UniProt Q9LVD4 1-379)
chain: MKKHVMLVKPFSLEDEKDSENTPPNLIQRILSLFKNVRPGSDLTNFQLPPQMNLARSQLQCYGEIVYSFDGHDLLGECSRRDKPIERMKAMVTWYISTLRPLIFGLAPYNPVIGETHHVSNGHINVLAEQISHHPPVSALHATHEKENVDVLLCQYFTPKFRGAYVDVEVKGKRVVKLLNHKETYEMNQPKLLMTFLPAMGAHWAGKIVIKCPETGLGAELQLLSDSFLSRFTGNNKRAIKGKIFESSSRKQLYEISGHWDRTVTAKNTKTGQLEVIYKASENIAKLKTPIVENLQEVSESESAVVWGEVSEGIVTNNWEKAREAKRDVEEKQRESLRKRKASGQSWIPKHFSVARTGKDWDCVPLQPTVPRAPIVVPL
For B8, in test [3], the binding entry is on record as “binds”.

B9: His6-tagged Osh3p expressed in yeast (protein, UniProt P38713 1-996)
chain: METIDIQNRSFVVRWVKCGRGDVINYQIKPLKKSIEVGIYKKLKSSVDDHASAVHIAPDTKTLLDYTTKSLLHKGSSSNIEEHHRRSSQHSHSSSNGSDNKRKERSYSSLSISGIQQQSQEIPLREKLSASGFTLVKRVGNVSGNTMVQGDLEVKDTDYYYAFILDNSSSKNAKKKILFNASVINGDNQSMISTRSTPPARPTALSRTSTQQDMLFRVGQGRYLQGYLLKKRRKRLQGFKKRFFTLDFRYGTLSYYLNDHNQTCRGEIVISLSSVSANKKDKIIIIDSGMEVWVLKATTKENWQSWVDALQTCFDDQFEDKDTSTLEENPDILDDDKEVINKSSPQDHDHLTPTATTKSALSHRQHTQKDMDDIYVPLPSESYATFSMNLRLIQQRLEQCKKDSLSYKPTTLHQRSEGLNGTHSSSSVFTNNRVSSFNHSSSGMTSSDSLASEEVPSNKTYIEHALYNQLADLEVFVSRFVTQGEVLFKDHQILCKKAKDTRVSLTSYLSENDEFFDAEEEISRGVIILPDTEDDINNIVEETPLLGKSDQNEFTKEVQLSGSEQIASSSVESYTTNDENHSRKHLKNRHKNRRRGHPHHQKTKSAQSSTETFTSKDLFALSYPKSVTRRNDIPEAAASPPSLLSFLRKNVGKDLSSIAMPVTSNEPISILQLISETFEYAPLLTKATQRPDPITFVSAFAISFLSIYRDKTRTLRKPFNPLLAETFELIREDMGFRLISEKVSHRPPVFAFFAEHLDWECSYTVTPSQKFWGKSIELNNEGILRLKFKTTGELFEWTQPTTILKNLIAGERYMEPVNEFEVHSSKGDKSHILFDKAGMFSGRSEGFKVSIIPPPSSNRKKETLAGKWTQSLANETTHETIWEVGDLVSNPKKKYGFTKFTANLNEITEIEKGNLPPTDSRLRPDIRAYEEGNVDKAEEWKLKLEQLQRERRNKGQDVEPKYFEKVSKNEWKYITGPKSYWERRKKHDWSDISQLW
In the case of B9, in test [3], the binding entry is “binds”.
